The values that follow come from patent publication US4265912A, “Glaucine lactate salts” (priority 1979, dated 1981).

Molecules are shown by their SMILES. Where a name gives a salt, the structure may show the parent alone.

The series is described as follows: palatability (taste) of 0.2 percent salt solutions in distilled water. The following applies: 0.2 percent (weight by volume) solution in distilled water, few drops on tongue.

Consider `COc1cc2c(cc1OC)-c1c(OC)c(OC)cc3c1C(C2)N(C)CC3` (racemic) [d,l-glaucine hydrobromide], for which the palatability / taste entry (hydrobromide) was “objectionable with a bitter, sharp and metallic initial taste which increased with time”. For the molecule `COc1cc2c(cc1OC)-c1c(OC)c(OC)cc3c1C(C2)N(C)CC3` (racemic) [d,l-glaucine lactate], the palatability / taste entry was “lack the sharp, metallic flavor and to be unobjectionable”. On the same count and under the same terms, for `COc1cc2c(cc1OC)-c1c(OC)c(OC)cc3c1C(C2)N(C)CC3` (racemic) [succinate] the value was “more objectionable than the hydrobromide”.
